Laboratory results taken from CN115433278A.
Results are given in words; binding and its absence hold for the method and conditions named. Some binding calls cover weakened binding; strength is not graded here.

Key:
[1] = target: T1, CS1全长蛋白 on cells (293 cells transfected with a CS1 full-length plasmid; Raji cells) (UniProt Q9NQ25); assay: flow cytometry on Raji cells, goat anti-rabbit IgG-488
T1 sequence (looked up): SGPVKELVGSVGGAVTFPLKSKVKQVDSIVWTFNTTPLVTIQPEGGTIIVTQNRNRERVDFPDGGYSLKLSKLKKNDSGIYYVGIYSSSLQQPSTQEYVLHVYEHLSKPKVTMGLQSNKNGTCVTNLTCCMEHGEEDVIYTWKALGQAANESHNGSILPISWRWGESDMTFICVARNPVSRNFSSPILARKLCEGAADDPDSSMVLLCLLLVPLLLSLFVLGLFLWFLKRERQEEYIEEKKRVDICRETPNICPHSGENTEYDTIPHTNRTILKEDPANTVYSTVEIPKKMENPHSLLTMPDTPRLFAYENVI

[2] = target: T1, CS1全长蛋白 on cells (293 cells transfected with a CS1 full-length plasmid; Raji cells); assay: flow cytometry on 293 cells transfected with full-length CS1, goat anti-rabbit IgG-488

Binder	binding [1]	binding [2]
命名为1D12的兔重组单克隆抗体 (rabbit recombinant monoclonal antibody 1D12) (antibody, V domains shown) VH: QSVEESGGRLVTPGTPLTLTCTVSGFSLSSYGMIWVRQAPGKGLEWIGSINTDGSTYYATWAKGRFTISRTSTTVDLKITSPTTEDTATYFCARGYPGYITDSYYYFNIWGPGTLVTVS VL: DVVLTQTPASVEAAVRGTVTIKCQASQSISSYLSWYQQKPGQPPKLLIYRASTLESGVPSRFKGSGSGTEFTLTITDLECADAATYYCQCTYGTFHSSGYGFGGGTGVVVK	binds	binds
命名为1H2的兔重组单克隆抗体 (rabbit recombinant monoclonal antibody 1H2) (antibody, V domains shown) VH: QSVEESRGGLIKPTDTLTLTCTVSGFSLSNYGVSWVRQAPGNGLEYIGFIGTIGATLYANWAKSRSTITRNTNLNTVTLKMTSLTAADTATYFCARGIYGDIYVYAFDIWGPGTLVTVSS VL: AAVLTQTPSPVSAAVGGTVTISCQASQSVRDNGDLAWYQQKPGQPPKLLIYDVSALASGVPSRFKGRGSGTQFTLTISDLECDDAATYSCAGGYIAGSDRWVFGGGTEVVVK	binds	binds
命名为2B3的兔重组单克隆抗体 (rabbit recombinant monoclonal antibody 2B3) (antibody, V domains shown) VH: QSVEESGGRLVTPGTPLTLTCTVSGFSLSAYAMGWFRQAPGKGLEYIGIISDSASTFYATWAKGRFTISRTSSTMVDLKMTSPTTEDTATYFCARAYYVVDNDSPFNMWGPGTVVTVS VL: VMTQTPSSVSAAVGGTVTINCQASENIYSSLAWYQQKPGQPPKLLIYAASKLESGVPSRFKGSRSETDFTLTISDLECDDAATYYCQSYYDTGRASFAFGGGTEVVVK	binds	binds
